{"source": "PubChem BioAssay AID1224826, NIAID | 2016", "test": "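Knock-downs that raise or lower Tnf reporter signal after endotoxin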 (primary screen)", "cell system": "RAW264.7 G9 macrophages from mouse bearing reporters for p65 (GFP) and the Tnf promoter (mCherry)", "reagents": "siRNA pool against mouse genes, 100 nM", "duration": "16 h of LPS stimulation, after 2 days of siRNA transfection", "conditions": "bacterial lipopolysaccharide (Salmonella minnesota R595), 10 ng/ml", "measured": "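Nuclear mCherry signal of the Tnf promoter reporter measured by imaging after background removal, scaled to each plate median and turned into robust z-scores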", "reading the numbers": "Tnf reporter robust z-score: higher = stronger Tnf promoter reporter signal after LPS", "call rule": "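Called active when robust z-score is at most -1.3, matching the median of the Tlr4 knock-down control, or over 3; control wells and wells with under 50 cells never active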", "calls": "active = Tnf reporter clearly lowered or raised; inactive = no clear change in Tnf reporter", "note": "In all, the deposit lists about 17,000 reagents; this is an unselected part. In the full data, about 1,110 (6.6%) got an active call. 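Active means lowered or raised reporter signal; replicate intensities are raw and not normalised per plate.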 Not all columns of the deposit are shown. Reagent sequences are not shown."}
The opening 2 records, to show the layout:
{"gene symbol": "Mageb18", "Tnf reporter robust z-score": 0.11, "fewer than 50 cells in well": "enough cells in well", "activity call": "inactive"}
{"gene symbol": "Mien1", "Tnf reporter robust z-score": -0.34, "fewer than 50 cells in well": "enough cells in well", "activity call": "inactive"}

The list itself, from the start:
{"gene symbol": "Mageb18", "Tnf reporter robust z-score": 0.11, "fewer than 50 cells in well": "enough cells in well", "activity call": "inactive"}
{"gene symbol": "Mien1", "Tnf reporter robust z-score": -0.34, "fewer than 50 cells in well": "enough cells in well", "activity call": "inactive"}
{"gene symbol": "Or14a260", "Tnf reporter robust z-score": -0.02, "fewer than 50 cells in well": "enough cells in well", "activity call": "inactive"}
{"gene symbol": "Hdlbp", "Tnf reporter robust z-score": 0.15, "fewer than 50 cells in well": "enough cells in well", "activity call": "inactive"}
{"gene symbol": "Cox6a1", "Tnf reporter robust z-score": 0.11, "fewer than 50 cells in well": "enough cells in well", "activity call": "inactive"}
{"gene symbol": "Numbl", "Tnf reporter robust z-score": -1.56, "fewer than 50 cells in well": "enough cells in well", "activity call": "active"}
{"gene symbol": "Nab1", "Tnf reporter robust z-score": -1.67, "fewer than 50 cells in well": "enough cells in well", "activity call": "active"}
{"gene symbol": "Or5ae2", "Tnf reporter robust z-score": -0.51, "fewer than 50 cells in well": "enough cells in well", "activity call": "inactive"}
{"gene symbol": "Tmem121", "fewer than 50 cells in well": "fewer than 50 cells per well; well left out of calls", "activity call": "inactive"}
{"gene symbol": "Cyp7a1", "Tnf reporter robust z-score": -0.62, "fewer than 50 cells in well": "enough cells in well", "activity call": "inactive"}
{"gene symbol": "Csnk1a1", "Tnf reporter robust z-score": -1.14, "fewer than 50 cells in well": "enough cells in well", "activity call": "inactive"}
{"gene symbol": "Eya1", "Tnf reporter robust z-score": 0.01, "fewer than 50 cells in well": "enough cells in well", "activity call": "inactive"}
{"gene symbol": "Gba1", "Tnf reporter robust z-score": 0.58, "fewer than 50 cells in well": "enough cells in well", "activity call": "inactive"}
{"gene symbol": "Ctsh", "Tnf reporter robust z-score": 0.13, "fewer than 50 cells in well": "enough cells in well", "activity call": "inactive"}
{"gene symbol": "Ift80", "Tnf reporter robust z-score": 0.42, "fewer than 50 cells in well": "enough cells in well", "activity call": "inactive"}
{"gene symbol": "Cpsf4l", "Tnf reporter robust z-score": -0.58, "fewer than 50 cells in well": "enough cells in well", "activity call": "inactive"}
{"gene symbol": "Tmem63a", "Tnf reporter robust z-score": -0.38, "fewer than 50 cells in well": "enough cells in well", "activity call": "inactive"}
{"gene symbol": "Saxo2", "Tnf reporter robust z-score": 0.52, "fewer than 50 cells in well": "enough cells in well", "activity call": "inactive"}
{"gene symbol": "Klf17", "Tnf reporter robust z-score": 1.13, "fewer than 50 cells in well": "enough cells in well", "activity call": "inactive"}
{"gene symbol": "Fcrl2", "Tnf reporter robust z-score": 0.11, "fewer than 50 cells in well": "enough cells in well", "activity call": "inactive"}
{"gene symbol": "Il24", "Tnf reporter robust z-score": -1.08, "fewer than 50 cells in well": "enough cells in well", "activity call": "inactive"}
